Drawing on patent publication US20200369770A1 (NANJING LEGEND BIOTECH, published 2020), this text covers binding for 1 molecule.

This assay deals with T1, His-tagged LAG-3 protein (Homo sapiens (Human)) (UniProt P18627).
T1 sequence: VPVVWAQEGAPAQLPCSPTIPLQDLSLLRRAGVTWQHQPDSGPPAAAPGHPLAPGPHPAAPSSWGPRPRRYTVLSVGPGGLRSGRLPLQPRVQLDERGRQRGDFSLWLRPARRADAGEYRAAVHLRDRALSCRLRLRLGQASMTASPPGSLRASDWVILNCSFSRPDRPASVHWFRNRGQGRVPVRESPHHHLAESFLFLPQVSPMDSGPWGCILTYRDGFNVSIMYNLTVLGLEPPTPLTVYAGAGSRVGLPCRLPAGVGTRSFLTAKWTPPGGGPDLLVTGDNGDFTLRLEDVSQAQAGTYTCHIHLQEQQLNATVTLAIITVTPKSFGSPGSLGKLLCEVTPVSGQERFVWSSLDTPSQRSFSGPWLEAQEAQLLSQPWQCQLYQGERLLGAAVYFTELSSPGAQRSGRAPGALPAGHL
The assay can be described thus: SPR (BIACORE T200); binder immobilized on the chip, His-tagged LAG-3 as analyte. Background: In SPR one partner is held on a chip, and binding of the other changes the refractive index at the surface.

No constants are given. Whether binding was seen depends on the method and setting. Some binding calls cover weakened binding; strength is not graded here. Tags and fused reporters may be left off the sequences shown.

B1: VHH2 HCAb (antibody, human IgG4 S228P, V domains shown)
VH: EVQLVESGGGLVQPGGSLRLSCAASGYTVSSYCMGWFRQAPGKGREGVSAIDSDGSVSYADSVKGRFTISKDNSKNTLYLQMNSLRAEDTAVYFCAADLCWVDQDQGEYNTWGQGTLVTVSS
notes: positive control for LAG-3; also called anti-LAG-3 VHH2 HCAb
B1: the binding result is “binds”.
